Data on 26 molecules can be found in publication PMC11171801.

Sequences of proteins named here, by UniProt entry; tags and fusion partners are left off. Residues count along the entry.
UniProt Q9UQB8: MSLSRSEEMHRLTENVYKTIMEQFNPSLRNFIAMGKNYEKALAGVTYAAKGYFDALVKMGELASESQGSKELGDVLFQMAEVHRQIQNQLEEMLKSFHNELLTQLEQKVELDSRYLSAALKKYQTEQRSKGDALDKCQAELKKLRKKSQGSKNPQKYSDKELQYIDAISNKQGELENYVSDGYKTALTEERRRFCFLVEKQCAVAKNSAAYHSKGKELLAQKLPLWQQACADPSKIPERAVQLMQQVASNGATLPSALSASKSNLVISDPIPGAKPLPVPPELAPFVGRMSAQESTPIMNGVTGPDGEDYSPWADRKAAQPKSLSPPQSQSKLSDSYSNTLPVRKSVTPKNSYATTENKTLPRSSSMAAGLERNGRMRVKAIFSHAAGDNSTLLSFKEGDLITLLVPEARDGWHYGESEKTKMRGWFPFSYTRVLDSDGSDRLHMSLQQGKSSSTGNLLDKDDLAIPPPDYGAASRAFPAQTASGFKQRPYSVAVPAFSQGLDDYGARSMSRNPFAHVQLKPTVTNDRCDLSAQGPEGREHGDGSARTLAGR
UniProt Q9UQN3: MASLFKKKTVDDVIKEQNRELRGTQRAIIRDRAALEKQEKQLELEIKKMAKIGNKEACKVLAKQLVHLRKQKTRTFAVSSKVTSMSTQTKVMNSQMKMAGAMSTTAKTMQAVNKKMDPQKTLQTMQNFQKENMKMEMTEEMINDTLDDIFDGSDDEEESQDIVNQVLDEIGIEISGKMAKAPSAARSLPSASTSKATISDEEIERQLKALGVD
UniProt Q9NZZ3: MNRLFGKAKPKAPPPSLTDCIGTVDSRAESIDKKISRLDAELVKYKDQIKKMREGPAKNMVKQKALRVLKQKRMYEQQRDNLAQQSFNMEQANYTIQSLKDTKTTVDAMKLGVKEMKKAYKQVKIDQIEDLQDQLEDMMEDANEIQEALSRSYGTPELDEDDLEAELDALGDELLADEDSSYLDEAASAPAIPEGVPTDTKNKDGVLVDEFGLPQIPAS
UniProt P35222: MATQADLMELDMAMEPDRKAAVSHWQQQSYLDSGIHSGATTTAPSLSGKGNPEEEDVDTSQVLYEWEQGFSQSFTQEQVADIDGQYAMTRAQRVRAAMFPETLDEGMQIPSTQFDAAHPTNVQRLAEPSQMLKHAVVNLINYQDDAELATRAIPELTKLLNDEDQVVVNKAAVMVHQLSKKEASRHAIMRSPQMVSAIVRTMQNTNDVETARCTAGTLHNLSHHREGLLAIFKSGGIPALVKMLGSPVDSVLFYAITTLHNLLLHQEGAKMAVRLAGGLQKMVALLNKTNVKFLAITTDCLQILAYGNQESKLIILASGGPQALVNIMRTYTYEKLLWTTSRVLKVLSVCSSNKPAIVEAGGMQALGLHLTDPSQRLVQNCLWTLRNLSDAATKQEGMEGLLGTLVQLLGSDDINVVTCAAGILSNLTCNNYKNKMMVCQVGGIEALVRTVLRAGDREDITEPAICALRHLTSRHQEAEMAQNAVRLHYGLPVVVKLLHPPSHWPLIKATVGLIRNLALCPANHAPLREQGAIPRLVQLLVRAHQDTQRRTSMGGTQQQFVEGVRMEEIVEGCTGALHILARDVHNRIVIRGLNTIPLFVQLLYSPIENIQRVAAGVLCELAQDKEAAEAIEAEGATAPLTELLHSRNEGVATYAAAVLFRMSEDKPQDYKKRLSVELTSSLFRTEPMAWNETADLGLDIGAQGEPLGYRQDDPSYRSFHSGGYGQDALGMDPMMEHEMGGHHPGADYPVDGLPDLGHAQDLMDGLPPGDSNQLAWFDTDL
UniProt Q9UJU6: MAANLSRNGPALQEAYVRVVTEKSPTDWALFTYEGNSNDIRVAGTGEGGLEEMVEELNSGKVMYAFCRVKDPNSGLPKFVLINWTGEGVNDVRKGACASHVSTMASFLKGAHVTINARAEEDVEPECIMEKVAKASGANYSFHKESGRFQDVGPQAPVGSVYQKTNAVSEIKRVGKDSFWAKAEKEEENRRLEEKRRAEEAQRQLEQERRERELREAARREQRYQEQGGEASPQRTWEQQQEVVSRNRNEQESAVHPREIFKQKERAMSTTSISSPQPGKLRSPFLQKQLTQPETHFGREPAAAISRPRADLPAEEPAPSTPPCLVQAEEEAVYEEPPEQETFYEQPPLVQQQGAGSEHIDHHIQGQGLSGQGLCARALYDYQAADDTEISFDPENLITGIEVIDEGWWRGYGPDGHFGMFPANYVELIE
UniProt Q8N8S7: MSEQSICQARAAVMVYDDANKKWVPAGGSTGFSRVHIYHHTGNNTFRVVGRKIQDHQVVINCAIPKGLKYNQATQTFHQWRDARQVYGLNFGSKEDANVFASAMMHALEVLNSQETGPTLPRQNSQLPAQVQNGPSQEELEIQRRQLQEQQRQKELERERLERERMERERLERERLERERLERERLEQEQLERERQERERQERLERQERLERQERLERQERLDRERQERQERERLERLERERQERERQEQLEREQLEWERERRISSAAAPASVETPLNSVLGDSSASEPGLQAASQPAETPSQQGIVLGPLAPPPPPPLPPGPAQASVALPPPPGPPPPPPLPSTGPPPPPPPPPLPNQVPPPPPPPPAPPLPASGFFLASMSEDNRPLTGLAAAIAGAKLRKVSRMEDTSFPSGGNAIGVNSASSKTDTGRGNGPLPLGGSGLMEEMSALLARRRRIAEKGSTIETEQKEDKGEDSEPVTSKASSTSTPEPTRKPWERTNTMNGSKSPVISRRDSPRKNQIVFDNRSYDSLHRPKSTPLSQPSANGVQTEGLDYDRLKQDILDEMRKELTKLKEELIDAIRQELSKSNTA
UniProt Q96AC1: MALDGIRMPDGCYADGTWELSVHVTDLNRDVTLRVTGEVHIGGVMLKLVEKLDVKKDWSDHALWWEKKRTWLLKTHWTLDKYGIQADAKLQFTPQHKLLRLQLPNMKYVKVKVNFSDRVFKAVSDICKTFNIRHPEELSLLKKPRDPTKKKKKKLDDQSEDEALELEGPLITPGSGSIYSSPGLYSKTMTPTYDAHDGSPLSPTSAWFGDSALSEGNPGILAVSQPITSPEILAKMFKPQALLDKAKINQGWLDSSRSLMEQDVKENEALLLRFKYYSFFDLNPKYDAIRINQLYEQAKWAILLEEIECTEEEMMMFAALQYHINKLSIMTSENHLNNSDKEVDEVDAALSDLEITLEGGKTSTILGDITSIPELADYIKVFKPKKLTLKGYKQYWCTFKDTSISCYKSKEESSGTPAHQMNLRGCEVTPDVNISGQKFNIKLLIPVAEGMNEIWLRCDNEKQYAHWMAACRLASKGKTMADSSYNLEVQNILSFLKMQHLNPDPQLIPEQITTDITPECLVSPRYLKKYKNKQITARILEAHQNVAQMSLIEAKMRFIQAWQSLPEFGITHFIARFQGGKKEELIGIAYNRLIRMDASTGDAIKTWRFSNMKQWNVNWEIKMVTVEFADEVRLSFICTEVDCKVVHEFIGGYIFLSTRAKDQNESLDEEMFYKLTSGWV
UniProt Q92692, residues 32-538: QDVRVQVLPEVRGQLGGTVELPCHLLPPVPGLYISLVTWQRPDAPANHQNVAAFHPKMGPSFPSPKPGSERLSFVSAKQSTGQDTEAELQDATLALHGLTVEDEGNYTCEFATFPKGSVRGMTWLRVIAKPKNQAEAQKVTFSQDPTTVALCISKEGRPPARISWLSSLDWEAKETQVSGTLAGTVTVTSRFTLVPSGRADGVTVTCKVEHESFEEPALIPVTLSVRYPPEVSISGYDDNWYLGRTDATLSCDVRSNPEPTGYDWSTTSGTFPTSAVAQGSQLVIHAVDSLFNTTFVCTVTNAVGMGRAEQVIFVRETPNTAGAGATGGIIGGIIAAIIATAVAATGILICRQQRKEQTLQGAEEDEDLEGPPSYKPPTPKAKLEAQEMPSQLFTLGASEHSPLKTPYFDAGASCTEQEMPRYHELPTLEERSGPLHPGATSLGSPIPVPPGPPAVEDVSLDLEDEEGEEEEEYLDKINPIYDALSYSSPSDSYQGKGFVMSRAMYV
UniProt Q9NQS3, residues 58-549: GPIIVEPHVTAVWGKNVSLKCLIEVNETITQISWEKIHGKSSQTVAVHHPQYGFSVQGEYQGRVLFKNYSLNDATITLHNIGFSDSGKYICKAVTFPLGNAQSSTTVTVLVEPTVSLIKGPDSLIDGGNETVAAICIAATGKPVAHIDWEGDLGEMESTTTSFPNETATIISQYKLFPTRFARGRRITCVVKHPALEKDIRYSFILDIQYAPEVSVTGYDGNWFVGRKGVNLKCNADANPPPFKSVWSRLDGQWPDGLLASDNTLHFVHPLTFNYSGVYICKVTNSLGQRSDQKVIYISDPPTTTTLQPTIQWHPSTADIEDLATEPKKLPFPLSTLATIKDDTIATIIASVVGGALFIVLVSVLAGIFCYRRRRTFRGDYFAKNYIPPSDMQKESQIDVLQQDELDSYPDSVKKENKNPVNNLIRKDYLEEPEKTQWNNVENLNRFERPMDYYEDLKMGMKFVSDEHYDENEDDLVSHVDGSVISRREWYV
UniProt O00161: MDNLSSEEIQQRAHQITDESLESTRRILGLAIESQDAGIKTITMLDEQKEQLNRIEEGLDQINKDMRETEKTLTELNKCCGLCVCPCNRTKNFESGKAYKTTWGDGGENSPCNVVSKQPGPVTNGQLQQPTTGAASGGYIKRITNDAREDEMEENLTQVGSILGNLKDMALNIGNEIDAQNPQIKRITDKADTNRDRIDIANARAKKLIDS
UniProt Q13596: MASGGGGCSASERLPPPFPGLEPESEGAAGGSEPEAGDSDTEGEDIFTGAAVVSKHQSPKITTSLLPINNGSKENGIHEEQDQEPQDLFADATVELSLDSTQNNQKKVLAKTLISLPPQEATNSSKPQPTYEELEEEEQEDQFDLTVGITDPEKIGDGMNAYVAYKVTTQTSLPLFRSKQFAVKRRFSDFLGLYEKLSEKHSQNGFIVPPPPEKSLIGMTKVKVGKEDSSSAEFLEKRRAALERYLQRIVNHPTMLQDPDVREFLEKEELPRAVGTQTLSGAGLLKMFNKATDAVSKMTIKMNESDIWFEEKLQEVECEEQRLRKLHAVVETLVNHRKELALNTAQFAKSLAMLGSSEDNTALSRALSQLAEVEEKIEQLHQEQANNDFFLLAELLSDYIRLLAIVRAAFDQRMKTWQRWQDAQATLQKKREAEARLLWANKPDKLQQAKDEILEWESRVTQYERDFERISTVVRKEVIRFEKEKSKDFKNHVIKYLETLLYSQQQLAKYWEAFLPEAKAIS
UniProt Q9Y5X1: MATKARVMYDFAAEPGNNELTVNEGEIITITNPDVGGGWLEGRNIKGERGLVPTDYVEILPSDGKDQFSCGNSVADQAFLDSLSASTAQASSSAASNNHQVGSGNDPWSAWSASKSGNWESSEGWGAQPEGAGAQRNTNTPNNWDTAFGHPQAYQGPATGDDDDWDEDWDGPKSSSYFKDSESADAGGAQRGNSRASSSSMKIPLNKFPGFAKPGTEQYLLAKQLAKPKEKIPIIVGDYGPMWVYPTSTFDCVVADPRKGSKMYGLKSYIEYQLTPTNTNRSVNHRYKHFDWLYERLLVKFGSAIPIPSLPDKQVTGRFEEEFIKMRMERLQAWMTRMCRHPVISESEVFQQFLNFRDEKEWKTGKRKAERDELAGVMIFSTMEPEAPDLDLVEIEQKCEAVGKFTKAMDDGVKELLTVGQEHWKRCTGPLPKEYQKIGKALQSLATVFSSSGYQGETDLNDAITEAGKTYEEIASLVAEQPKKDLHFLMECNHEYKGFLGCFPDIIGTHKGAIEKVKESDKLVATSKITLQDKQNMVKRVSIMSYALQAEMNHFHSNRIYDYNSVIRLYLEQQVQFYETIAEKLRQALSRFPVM
UniProt P63027: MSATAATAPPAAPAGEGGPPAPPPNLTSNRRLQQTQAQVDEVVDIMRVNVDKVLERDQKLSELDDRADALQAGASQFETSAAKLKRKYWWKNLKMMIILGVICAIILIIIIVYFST
UniProt Q15836: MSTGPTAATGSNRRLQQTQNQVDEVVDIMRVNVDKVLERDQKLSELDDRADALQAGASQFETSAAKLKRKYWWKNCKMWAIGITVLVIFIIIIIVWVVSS
UniProt Q14247: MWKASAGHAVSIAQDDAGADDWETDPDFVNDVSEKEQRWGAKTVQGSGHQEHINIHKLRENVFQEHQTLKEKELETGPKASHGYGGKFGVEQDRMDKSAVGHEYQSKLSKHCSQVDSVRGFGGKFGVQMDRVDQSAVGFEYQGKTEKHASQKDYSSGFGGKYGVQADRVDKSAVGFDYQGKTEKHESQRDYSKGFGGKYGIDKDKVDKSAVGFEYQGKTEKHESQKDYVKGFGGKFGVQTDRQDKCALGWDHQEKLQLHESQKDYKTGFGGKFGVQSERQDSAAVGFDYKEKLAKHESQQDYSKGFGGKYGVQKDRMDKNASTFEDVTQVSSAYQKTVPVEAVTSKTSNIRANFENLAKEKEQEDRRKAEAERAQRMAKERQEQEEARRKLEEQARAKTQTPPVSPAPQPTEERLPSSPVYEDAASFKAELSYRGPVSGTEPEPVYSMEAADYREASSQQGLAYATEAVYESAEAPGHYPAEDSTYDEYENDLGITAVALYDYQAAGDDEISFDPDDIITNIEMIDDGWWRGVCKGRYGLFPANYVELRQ

No constants are given. Whether binding was seen depends on the method and setting. In cells and extracts the contact can be indirect. Here binding means that the protein was enriched with, or labelled near, the bait; the list need not be complete.

In this test the target is FMNL2-birA* fusion protein (human) (UniProt Q96PY5). As to the kind of experiment: proximity labelling; BioID screen with SILAC: FMNL2-birA* (Heavy) against FMNL2-mCherry control (Light), transiently expressed in HEK293T/17; 50 μM biotin for 16 h; low-salt RIPA lysate; streptavidin-agarose capture; in-gel trypsin digest and LC-MS/MS; hits with SILAC ratios twofold above the median, filtered for known contaminants.

With ARPIN (from UniProt Q7Z6K5 1-226), the binding entry is given as “binds”.
As for BAIAP2 (from UniProt Q9UQB8 1-552), the entry is “binds”; as for CHMP2B (from UniProt Q9UQN3 1-213), “binds”.
Under CHMP5 (from UniProt Q9NZZ3 1-219) stands “binds”; under CKAP5 (from UniProt Q14008 1-2032), “binds”.
Under CTNNB1 (from UniProt P35222 1-781) stands “binds”; under DBNL (from UniProt Q9UJU6 1-430), “binds”.
As for ENAH (from UniProt Q8N8S7 1-591), the binding entry is on record as “binds”.
For FERMT2 (from UniProt Q96AC1 1-680), the binding result is on record as “binds”.
As for “PVRL2 (Nectin-2) (from UniProt Q92692 32-538)”, the entry is “binds”; as for “PVRL3 (Nectin-3) (from UniProt Q9NQS3 58-549)”, “binds”.
As for SNAP23 (from UniProt O00161 1-211), the entry is “binds”; as for SNX1 (from UniProt Q13596 1-522), “binds”.
Under SNX9 (from UniProt Q9Y5X1 1-595) stands “binds”.
Take VAMP2 (from UniProt P63027 1-116): the binding entry is “binds”.
With VAMP3 (from UniProt Q15836 1-100), the binding result is on record as “binds”.
With cortactin (from UniProt Q14247 1-550), the binding entry is recorded as “binds”.
As for “β1-integrin (from UniProt P05556 21-798)”, the entry is “binds”.

B1: BAIAP2L1 (protein, UniProt Q9UHR4 1-511)
chain: MSRGPEEVNRLTESTYRNVMEQFNPGLRNLINLGKNYEKAVNAMILAGKAYYDGVAKIGEIATGSPVSTELGHVLIEISSTHKKLNESLDENFKKFHKEIIHELEKKIELDVKYMNATLKRYQTEHKNKLESLEKSQAELKKIRRKSQGSRNALKYEHKEIEYVETVTSRQSEIQKFIADGCKEALLEEKRRFCFLVDKHCGFANHIHYYHLQSAELLNSKLPRWQETCVDAIKVPEKIMNMIEEIKTPASTPVSGTPQASPMIERSNVVRKDYDTLSKCSPKMPPAPSGRAYTSPLIDMFNNPATAAPNSQRVNNSTGTSEDPSLQRSVSVATGLNMMKKQKVKTIFPHTAGSNKTLLSFAQGDVITLLIPEEKDGWLYGEHDVSKARGWFPSSYTKLLEENETEAVTVPTPSPTPVRSISTVNLSENSSVVIPPPDYLECLSMGAAADRRADSARTTSTFKAPASKPETAAPNDANGTAKPPFLSGENPFATVKLRPTVTNDRSAPIIR
Take B1: the binding result was “binds”.

B2: ESYT1 (protein, UniProt Q9BSJ8 1-1104)
chain: MERSPGEGPSPSPMDQPSAPSDPTDQPPAAHAKPDPGSGGQPAGPGAAGEALAVLTSFGRRLLVLIPVYLAGAVGLSVGFVLFGLALYLGWRRVRDEKERSLRAARQLLDDEEQLTAKTLYMSHRELPAWVSFPDVEKAEWLNKIVAQVWPFLGQYMEKLLAETVAPAVRGSNPHLQTFTFTRVELGEKPLRIIGVKVHPGQRKEQILLDLNISYVGDVQIDVEVKKYFCKAGVKGMQLHGVLRVILEPLIGDLPFVGAVSMFFIRRPTLDINWTGMTNLLDIPGLSSLSDTMIMDSIAAFLVLPNRLLVPLVPDLQDVAQLRSPLPRGIIRIHLLAARGLSSKDKYVKGLIEGKSDPYALVRLGTQTFCSRVIDEELNPQWGETYEVMVHEVPGQEIEVEVFDKDPDKDDFLGRMKLDVGKVLQASVLDDWFPLQGGQGQVHLRLEWLSLLSDAEKLEQVLQWNWGVSSRPDPPSAAILVVYLDRAQDLPLKKGNKEPNPMVQLSIQDVTQESKAVYSTNCPVWEEAFRFFLQDPQSQELDVQVKDDSRALTLGALTLPLARLLTAPELILDQWFQLSSSGPNSRLYMKLVMRILYLDSSEICFPTVPGCPGAWDVDSENPQRGSSVDAPPRPCHTTPDSQFGTEHVLRIHVLEAQDLIAKDRFLGGLVKGKSDPYVKLKLAGRSFRSHVVREDLNPRWNEVFEVIVTSVPGQELEVEVFDKDLDKDDFLGRCKVRLTTVLNSGFLDEWLTLEDVPSGRLHLRLERLTPRPTAAELEEVLQVNSLIQTQKSAELAAALLSIYMERAEDLPLRKGTKHLSPYATLTVGDSSHKTKTISQTSAPVWDESASFLIRKPHTESLELQVRGEGTGVLGSLSLPLSELLVADQLCLDRWFTLSSGQGQVLLRAQLGILVSQHSGVEAHSHSYSHSSSSLSEEPELSGGPPHITSSAPELRQRLTHVDSPLEAPAGPLGQVKLTLWYYSEERKLVSIVHGCRSLRQNGRDPPDPYVSLLLLPDKNRGTKRRTSQKKRTLSPEFNERFEWELPLDEAQRRKLDVSVKSNSSFMSRERELLGKVQLDLAETDLSQGVARWYDLMDNKDKGSS
Take B2: the binding result is “binds”.

B3: CALD1 (protein, UniProt Q05682 1-793)
chain: MDDFERRRELRRQKREEMRLEAERIAYQRNDDDEEEAARERRRRARQERLRQKQEEESLGQVTDQVEVNAQNSVPDEEAKTTTTNTQVEGDDEAAFLERLARREERRQKRLQEALERQKEFDPTITDASLSLPSRRMQNDTAENETTEKEEKSESRQERYEIEETETVTKSYQKNDWRDAEENKKEDKEKEEEEEEKPKRGSIGENQVEVMVEEKTTESQEETVVMSLKNGQISSEEPKQEEEREQGSDEISHHEKMEEEDKERAEAERARLEAEERERIKAEQDKKIADERARIEAEEKAAAQERERREAEERERMREEEKRAAEERQRIKEEEKRAAEERQRIKEEEKRAAEERQRIKEEEKRAAEERQRARAEEEEKAKVEEQKRNKQLEEKKHAMQETKIKGEKVEQKIEGKWVNEKKAQEDKLQTAVLKKQGEEKGTKVQAKREKLQEDKPTFKKEEIKDEKIKKDKEPKEEVKSFMDRKKGFTEVKSQNGEFMTHKLKHTENTFSRPGGRASVDTKEAEGAPQVEAGKRLEELRRRRGETESEEFEKLKQKQQEAALELEELKKKREERRKVLEEEEQRRKQEEADRKLREEEEKRRLKEEIERRRAEAAEKRQKMPEDGLSDDKKPFKCFTPKGSSLKIEERAEFLNKSVQKSSGVKSTHQAAIVSKIDSRLEQYTSAIEGTKSAKPTKPAASDLPVPAEGVRNIKSMWEKGNVFSSPTAAGTPNKETAGLKVGVSSRINEWLTKTPDGNKSPAPKPSDLRPGDVSSKRNLWEKQSVDKVTSPTKV
On to B3, for which the binding entry was “binds”.

B4: SEPTIN2 (protein, UniProt Q15019 1-361)
chain: MSKQQPTQFINPETPGYVGFANLPNQVHRKSVKKGFEFTLMVVGESGLGKSTLINSLFLTDLYPERVIPGAAEKIERTVQIEASTVEIEERGVKLRLTVVDTPGYGDAINCRDCFKTIISYIDEQFERYLHDESGLNRRHIIDNRVHCCFYFISPFGHGLKPLDVAFMKAIHNKVNIVPVIAKADTLTLKERERLKKRILDEIEEHNIKIYHLPDAESDEDEDFKEQTRLLKASIPFSVVGSNQLIEAKGKKVRGRLYPWGVVEVENPEHNDFLKLRTMLITHMQDLQEVTQDLHYENFRSERLKRGGRKVENEDMNKDQILLEKEAELRRMQEMIARMQAQMQMQMQGGDGDGGALGHHV
Regarding B4, the binding result is reported as “binds”.

B5: SEPTIN7 (protein, UniProt Q16181 1-437)
chain: MSVSARSAAAEERSVNSSTMVAQQKNLEGYVGFANLPNQVYRKSVKRGFEFTLMVVGESGLGKSTLINSLFLTDLYSPEYPGPSHRIKKTVQVEQSKVLIKEGGVQLLLTIVDTPGFGDAVDNSNCWQPVIDYIDSKFEDYLNAESRVNRRQMPDNRVQCCLYFIAPSGHGLKPLDIEFMKRLHEKVNIIPLIAKADTLTPEECQQFKKQIMKEIQEHKIKIYEFPETDDEEENKLVKKIKDRLPLAVVGSNTIIEVNGKRVRGRQYPWGVAEVENGEHCDFTILRNMLIRTHMQDLKDVTNNVHYENYRSRKLAAVTYNGVDNNKNKGQLTKSPLAQMEEERREHVAKMKKMEMEMEQVFEMKVKEKVQKLKDSEAELQRRHEQMKKNLEAQHKELEEKRRQFEDEKANWEAQQRILEQQNSSRTLEKNKKKGKIF
Turning to B5, the binding result was “binds”.

B6: MARCKSL1 (protein, UniProt P49006 1-195)
chain: MGSQSSKAPRGDVTAEEAAGASPAKANGQENGHVKSNGDLSPKGEGESPPVNGTDEAAGATGDAIEPAPPSQGAEAKGEVPPKETPKKKKKFSFKKPFKLSGLSFKRNRKEGGGDSSASSPTEEEQEQGEIGACSDEGTAQEGKAAATPESQEPQAKGAEASAASEEEAGPQATEPSTPSGPESGPTPASAEQNE
As to B6, the binding result is “binds”.

B7: SEPTIN9 (protein, UniProt Q9UHD8 1-586)
chain: MKKSYSGGTRTSSGRLRRLGDSSGPALKRSFEVEEVETPNSTPPRRVQTPLLRATVASSTQKFQDLGVKNSEPSARHVDSLSQRSPKASLRRVELSGPKAAEPVSRRTELSIDISSKQVENAGAIGPSRFGLKRAEVLGHKTPEPAPRRTEITIVKPQESAHRRMEPPASKVPEVPTAPATDAAPKRVEIQMPKPAEAPTAPSPAQTLENSEPAPVSQLQSRLEPKPQPPVAEATPRSQEATEAAPSCVGDMADTPRDAGLKQAPASRNEKAPVDFGYVGIDSILEQMRRKAMKQGFEFNIMVVGQSGLGKSTLINTLFKSKISRKSVQPTSEERIPKTIEIKSITHDIEEKGVRMKLTVIDTPGFGDHINNENCWQPIMKFINDQYEKYLQEEVNINRKKRIPDTRVHCCLYFIPATGHSLRPLDIEFMKRLSKVVNIVPVIAKADTLTLEERVHFKQRITADLLSNGIDVYPQKEFDEDSEDRLVNEKFREMIPFAVVGSDHEYQVNGKRILGRKTKWGTIEVENTTHCEFAYLRDLLIRTHMQNIKDITSSIHFEAYRVKRLNEGSSAMANGMEEKEPEAPEM
For B7, the binding result was “binds”.

B8: PLS3 (protein, UniProt P13797 1-630)
chain: MDEMATTQISKDELDELKEAFAKVDLNSNGFICDYELHELFKEANMPLPGYKVREIIQKLMLDGDRNKDGKISFDEFVYIFQEVKSSDIAKTFRKAINRKEGICALGGTSELSSEGTQHSYSEEEKYAFVNWINKALENDPDCRHVIPMNPNTDDLFKAVGDGIVLCKMINLSVPDTIDERAINKKKLTPFIIQENLNLALNSASAIGCHVVNIGAEDLRAGKPHLVLGLLWQIIKIGLFADIELSRNEALAALLRDGETLEELMKLSPEELLLRWANFHLENSGWQKINNFSADIKDSKAYFHLLNQIAPKGQKEGEPRIDINMSGFNETDDLKRAESMLQQADKLGCRQFVTPADVVSGNPKLNLAFVANLFNKYPALTKPENQDIDWTLLEGETREERTFRNWMNSLGVNPHVNHLYADLQDALVILQLYERIKVPVDWSKVNKPPYPKLGANMKKLENCNYAVELGKHPAKFSLVGIGGQDLNDGNQTLTLALVWQLMRRYTLNVLEDLGDGQKANDDIIVNWVNRTLSEAGKSTSIQSFKDKTISSSLAVVDLIDAIQPGCINYDLVKSGNLTEDDKHNNAKYAVSMARRIGARVYALPEDLVEVKPKMVMTVFACLMGRGMKRV
Take B8: the binding entry is reported as “binds”.
